Measured values published in PubChem BioAssay (NCATS).
“And” between values parts separate entries of the source, which are not always exact repeats. Equal values may be shown once. The source calls these results inconclusive, neither active nor inactive. Unless noted, calls come from the whole dose curve; as a rule, active = well fitted curve in the direction sought with a large enough effect; inconclusive = small, poorly fitted or top-dose-only effect, or another doubt; inactive = no such curve, though single readings can be large; an effect the other way counts as inactive or inconclusive.

Amino acid sequences for entries named in this document (tags omitted).
UniProt P10275, whole entry: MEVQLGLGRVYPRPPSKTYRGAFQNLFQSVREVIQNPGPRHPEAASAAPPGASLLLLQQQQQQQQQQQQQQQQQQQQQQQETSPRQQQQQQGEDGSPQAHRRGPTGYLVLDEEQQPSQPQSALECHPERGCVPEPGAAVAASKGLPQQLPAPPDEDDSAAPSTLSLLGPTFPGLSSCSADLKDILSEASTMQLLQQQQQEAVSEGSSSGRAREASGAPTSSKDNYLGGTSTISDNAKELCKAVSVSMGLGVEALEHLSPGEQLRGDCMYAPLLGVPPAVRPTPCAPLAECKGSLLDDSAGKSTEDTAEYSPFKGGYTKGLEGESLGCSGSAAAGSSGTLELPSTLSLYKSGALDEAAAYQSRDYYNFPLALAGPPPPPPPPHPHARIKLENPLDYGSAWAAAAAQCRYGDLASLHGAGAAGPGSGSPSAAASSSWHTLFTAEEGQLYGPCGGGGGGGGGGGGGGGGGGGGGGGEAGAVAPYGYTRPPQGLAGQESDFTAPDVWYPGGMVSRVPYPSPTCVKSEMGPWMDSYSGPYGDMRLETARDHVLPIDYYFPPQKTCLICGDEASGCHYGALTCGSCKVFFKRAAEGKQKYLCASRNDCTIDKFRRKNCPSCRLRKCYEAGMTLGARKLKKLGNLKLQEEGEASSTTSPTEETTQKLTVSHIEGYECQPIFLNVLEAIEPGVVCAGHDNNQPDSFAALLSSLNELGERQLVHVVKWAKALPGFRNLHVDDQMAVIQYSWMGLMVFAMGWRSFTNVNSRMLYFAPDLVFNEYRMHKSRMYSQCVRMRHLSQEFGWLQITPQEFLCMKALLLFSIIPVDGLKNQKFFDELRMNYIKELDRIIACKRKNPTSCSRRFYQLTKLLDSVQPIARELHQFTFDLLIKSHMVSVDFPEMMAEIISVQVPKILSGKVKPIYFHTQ
UniProt P10635, whole entry: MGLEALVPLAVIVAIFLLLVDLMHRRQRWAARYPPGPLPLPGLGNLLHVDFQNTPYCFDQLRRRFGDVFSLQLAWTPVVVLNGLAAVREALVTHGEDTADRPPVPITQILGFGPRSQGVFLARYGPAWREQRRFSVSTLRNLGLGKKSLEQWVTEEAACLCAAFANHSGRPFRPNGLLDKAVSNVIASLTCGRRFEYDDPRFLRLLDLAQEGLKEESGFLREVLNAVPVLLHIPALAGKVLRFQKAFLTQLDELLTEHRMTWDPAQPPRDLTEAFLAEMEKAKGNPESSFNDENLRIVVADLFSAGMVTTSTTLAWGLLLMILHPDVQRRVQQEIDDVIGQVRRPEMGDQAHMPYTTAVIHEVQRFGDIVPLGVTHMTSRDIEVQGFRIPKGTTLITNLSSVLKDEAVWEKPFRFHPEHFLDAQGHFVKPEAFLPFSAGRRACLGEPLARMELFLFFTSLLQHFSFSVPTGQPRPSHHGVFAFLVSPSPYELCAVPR
UniProt P08684, whole entry: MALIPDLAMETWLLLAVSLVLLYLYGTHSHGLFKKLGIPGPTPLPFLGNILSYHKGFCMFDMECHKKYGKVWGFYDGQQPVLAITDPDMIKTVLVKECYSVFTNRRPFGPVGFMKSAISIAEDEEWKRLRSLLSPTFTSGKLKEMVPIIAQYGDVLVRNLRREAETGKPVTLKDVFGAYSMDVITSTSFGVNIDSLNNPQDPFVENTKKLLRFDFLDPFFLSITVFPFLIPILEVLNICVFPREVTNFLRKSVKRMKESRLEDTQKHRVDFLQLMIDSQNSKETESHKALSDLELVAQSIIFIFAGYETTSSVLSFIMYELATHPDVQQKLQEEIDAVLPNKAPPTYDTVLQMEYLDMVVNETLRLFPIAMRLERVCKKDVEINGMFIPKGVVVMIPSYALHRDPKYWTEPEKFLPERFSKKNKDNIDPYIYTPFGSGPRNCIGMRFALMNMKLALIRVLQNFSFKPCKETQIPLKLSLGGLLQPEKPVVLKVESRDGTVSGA
UniProt O15648, whole entry: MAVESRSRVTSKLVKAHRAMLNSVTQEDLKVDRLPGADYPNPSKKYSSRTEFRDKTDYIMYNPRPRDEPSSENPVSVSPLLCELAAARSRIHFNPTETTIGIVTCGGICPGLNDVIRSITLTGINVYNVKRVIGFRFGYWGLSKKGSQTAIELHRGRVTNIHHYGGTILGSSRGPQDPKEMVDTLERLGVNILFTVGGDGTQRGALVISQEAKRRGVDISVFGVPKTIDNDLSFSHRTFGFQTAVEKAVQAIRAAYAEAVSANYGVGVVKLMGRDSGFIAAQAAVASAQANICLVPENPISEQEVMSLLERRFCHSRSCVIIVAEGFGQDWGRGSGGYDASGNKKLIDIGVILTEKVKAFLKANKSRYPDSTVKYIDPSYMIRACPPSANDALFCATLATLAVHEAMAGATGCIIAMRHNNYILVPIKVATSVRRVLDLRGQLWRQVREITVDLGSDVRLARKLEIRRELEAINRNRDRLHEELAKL
UniProt Q8NER1, whole entry: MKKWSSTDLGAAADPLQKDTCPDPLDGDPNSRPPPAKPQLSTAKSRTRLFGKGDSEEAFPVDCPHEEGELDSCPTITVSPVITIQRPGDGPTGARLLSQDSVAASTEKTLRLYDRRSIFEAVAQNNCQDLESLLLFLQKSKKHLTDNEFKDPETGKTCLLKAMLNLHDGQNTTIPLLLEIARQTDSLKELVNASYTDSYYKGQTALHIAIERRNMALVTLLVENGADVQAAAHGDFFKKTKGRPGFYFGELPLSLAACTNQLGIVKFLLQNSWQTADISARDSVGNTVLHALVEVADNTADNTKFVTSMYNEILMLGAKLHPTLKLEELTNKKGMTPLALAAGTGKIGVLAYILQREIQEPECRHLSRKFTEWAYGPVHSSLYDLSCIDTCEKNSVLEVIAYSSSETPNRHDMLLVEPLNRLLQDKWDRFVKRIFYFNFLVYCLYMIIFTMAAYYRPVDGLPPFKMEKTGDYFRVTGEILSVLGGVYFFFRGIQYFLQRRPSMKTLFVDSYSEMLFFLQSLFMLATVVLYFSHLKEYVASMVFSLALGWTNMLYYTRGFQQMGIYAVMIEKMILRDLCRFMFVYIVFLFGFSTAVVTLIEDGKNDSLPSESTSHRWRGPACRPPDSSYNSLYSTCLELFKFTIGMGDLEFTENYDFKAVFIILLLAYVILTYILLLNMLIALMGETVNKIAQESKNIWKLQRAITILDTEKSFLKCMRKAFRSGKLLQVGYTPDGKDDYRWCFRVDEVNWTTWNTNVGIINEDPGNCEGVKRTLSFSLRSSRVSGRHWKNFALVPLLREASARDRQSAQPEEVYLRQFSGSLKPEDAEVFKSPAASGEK
UniProt P21728, whole entry: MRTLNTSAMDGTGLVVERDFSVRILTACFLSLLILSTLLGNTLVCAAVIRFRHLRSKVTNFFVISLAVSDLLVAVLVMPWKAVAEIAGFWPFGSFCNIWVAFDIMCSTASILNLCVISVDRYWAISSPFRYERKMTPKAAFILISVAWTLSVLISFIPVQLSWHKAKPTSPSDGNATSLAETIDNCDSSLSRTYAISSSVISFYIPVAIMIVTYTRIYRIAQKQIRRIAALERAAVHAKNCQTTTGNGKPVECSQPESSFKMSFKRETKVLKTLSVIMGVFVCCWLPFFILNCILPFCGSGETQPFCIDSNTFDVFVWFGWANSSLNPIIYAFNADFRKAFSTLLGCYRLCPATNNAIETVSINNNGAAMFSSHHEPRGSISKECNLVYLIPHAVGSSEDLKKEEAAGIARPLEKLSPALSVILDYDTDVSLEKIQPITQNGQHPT
UniProt Q9UGL1, whole entry, looked up: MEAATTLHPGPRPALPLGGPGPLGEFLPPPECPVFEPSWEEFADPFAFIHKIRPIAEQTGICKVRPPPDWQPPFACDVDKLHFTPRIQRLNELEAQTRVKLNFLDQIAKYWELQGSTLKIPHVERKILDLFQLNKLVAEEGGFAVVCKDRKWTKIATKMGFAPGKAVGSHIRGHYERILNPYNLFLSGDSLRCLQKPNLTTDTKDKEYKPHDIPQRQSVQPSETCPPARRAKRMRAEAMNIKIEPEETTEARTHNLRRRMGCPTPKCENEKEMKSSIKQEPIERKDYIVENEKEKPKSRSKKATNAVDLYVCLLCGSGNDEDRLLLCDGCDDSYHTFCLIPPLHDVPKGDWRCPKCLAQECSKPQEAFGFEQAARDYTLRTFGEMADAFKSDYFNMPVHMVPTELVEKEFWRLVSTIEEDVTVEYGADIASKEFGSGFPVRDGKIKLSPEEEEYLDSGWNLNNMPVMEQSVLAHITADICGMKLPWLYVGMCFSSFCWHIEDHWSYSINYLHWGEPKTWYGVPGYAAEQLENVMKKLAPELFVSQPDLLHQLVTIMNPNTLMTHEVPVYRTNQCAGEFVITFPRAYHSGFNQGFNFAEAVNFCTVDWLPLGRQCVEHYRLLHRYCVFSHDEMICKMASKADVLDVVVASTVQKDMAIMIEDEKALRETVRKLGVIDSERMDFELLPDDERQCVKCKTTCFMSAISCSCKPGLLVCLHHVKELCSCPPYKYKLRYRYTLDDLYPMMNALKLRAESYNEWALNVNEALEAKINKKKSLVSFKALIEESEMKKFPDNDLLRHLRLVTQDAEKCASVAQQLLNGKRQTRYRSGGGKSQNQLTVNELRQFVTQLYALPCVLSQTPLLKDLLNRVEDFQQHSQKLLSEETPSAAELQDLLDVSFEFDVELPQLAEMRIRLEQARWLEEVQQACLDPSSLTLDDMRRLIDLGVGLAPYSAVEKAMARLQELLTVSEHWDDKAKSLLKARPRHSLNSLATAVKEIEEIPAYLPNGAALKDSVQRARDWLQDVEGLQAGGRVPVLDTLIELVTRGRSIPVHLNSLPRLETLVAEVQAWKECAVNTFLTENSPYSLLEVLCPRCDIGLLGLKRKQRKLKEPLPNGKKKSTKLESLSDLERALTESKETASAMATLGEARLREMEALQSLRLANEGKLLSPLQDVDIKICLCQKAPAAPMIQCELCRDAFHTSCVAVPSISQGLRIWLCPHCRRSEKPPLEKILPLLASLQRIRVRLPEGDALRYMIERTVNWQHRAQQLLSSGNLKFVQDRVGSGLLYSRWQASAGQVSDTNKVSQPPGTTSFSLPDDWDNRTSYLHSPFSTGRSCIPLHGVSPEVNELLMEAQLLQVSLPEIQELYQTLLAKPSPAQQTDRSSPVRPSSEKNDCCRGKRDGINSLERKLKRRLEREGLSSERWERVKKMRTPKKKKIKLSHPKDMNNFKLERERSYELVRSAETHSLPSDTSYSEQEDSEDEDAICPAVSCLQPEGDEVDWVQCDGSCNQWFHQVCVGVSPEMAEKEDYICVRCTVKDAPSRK
UniProt Q99828, whole entry, looked up: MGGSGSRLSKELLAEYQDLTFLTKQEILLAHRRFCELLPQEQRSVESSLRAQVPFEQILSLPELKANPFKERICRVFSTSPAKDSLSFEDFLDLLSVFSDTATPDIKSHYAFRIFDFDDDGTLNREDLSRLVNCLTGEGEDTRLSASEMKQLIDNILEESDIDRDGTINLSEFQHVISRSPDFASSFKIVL

Tests used:
[1] = Cellular Toxicity (caspase-3) NIH 3T3 (AID 666); details: NIH 3T3 caspase-3 activation, apoptosis/toxicity;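 note: potency is the fitted concentration of half-maximal effect; caspase signal read after 16 h compound exposure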
How it was run: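 Activity: caspase-3/7 induction, NIH 3T3 cells, 16 hr treatment at 37°C, luminescent Caspase-Glo detection; AC50 via Hill equation.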

[2] = MultiTox-Fluor Cytotoxicity Assay - LYMP1-002 - Dead Cells (AID 960); details: LYMP1-002 lymphoblastoid cells, dead-cell protease fluorescence; note: potency is the fitted concentration of half-maximal effect; nearly all actives have a fitted effect of over 60% in size
How it was run: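 Concentration-dependent increases in membrane-leaked protease activity are quantified in LYMP1-002 cells after 16 hr treatment; values are normalized against DMSO and tetraoctylammonium bromide (15 uM) controls and AC50 derived by Hill modeling.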

[3] = molecular target: Androgen receptor (Homo sapiens) (UniProt P10275); experiment: qHTS assay for small molecule agonists of androgen receptor signaling (AID 588515; active = well fitted curve in the direction sought with a large enough effect in the signal ratio, with a control signal flat; inconclusive = small, poorly fitted or top-dose-only effect, or effect the other way, or a change in a side signal; inactive = no such curve, though single readings can be large or run the other way; the % refers to the signal ratio; note: % is set by controls: 0 for no effect and ±100 for the full control effect); details: AR-UAS-bla HEK293, beta-lactamase ratio, agonist 16 h; active compounds read high
[4] = molecular target: Androgen receptor (Homo sapiens) (UniProt P10275); experiment: qHTS assay for small molecule antagonists of androgen receptor signaling (AID 588516; active = well fitted curve in the direction sought with a large enough effect in the signal ratio, with a control signal flat, not every such curve was filed as active; inconclusive = small, poorly fitted or top-dose-only effect, or effect the other way, or a change in a side signal; inactive = no such curve, though single readings can be large or run the other way; the % refers to the signal ratio; note: potency is the fitted concentration of half-maximal effect); details: AR-UAS-bla HEK293, beta-lactamase ratio, antagonist mode, 16 h
[5] = molecular target: Glucocorticoid receptor (Homo sapiens) (UniProt P04150); experiment: qHTS assay for small molecule antagonists of glucocorticoid receptor signaling (AID 588533; active = well fitted inhibition curve with a large enough effect in the signal ratio, with a control signal flat, not every such curve was filed as active; inconclusive = small, poorly fitted or top-dose-only effect, or effect the other way, or a change in a side signal; the % refers to the signal ratio;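 note: cells stimulated with 2 nM dexamethasone as agonist; % is set by controls: 0 for no effect and ±100 for the full control effect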); details: HeLa MMTV-bla, GRE beta-lactamase ratio, antagonist mode, 18 h; activity change, negative = inhibition: at 76.8 µM (top of the series)
[6] = molecular target: Peroxisome proliferator-activated receptor gamma (Homo sapiens) (UniProt P37231); experiment: qHTS assay for small molecule antagonists of peroxisome proliferator-activated receptor gamma signaling (AID 588537; active = well fitted inhibition curve with a large enough effect in the signal ratio, with a control signal flat, not every such curve was filed as active; inconclusive = small, poorly fitted or top-dose-only effect, or effect the other way, or a change in a side signal; the % refers to the signal ratio; note: potency is the fitted concentration of half-maximal effect); details: HEK293 PPARg-UAS-bla, beta-lactamase ratio, antagonist mode; activity, negative = inhibition: at 76.8 µM (top of the series)
How it was run: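 HEK293 cells, PPAR-gamma-UAS-bla, 3000/well. Pre-incubation 6-6.5 h, 37 C. Compound titration with rosiglitazone 50 nM final, 16 h. CCF4 dye, 2 h RT, dual-emission fluorescence.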

[7] = molecular target: Retinoic acid receptor RXR-alpha (Homo sapiens) (UniProt P19793); experiment: qHTS assay for small molecule agonists of retinoid X receptor alpha signaling (AID 588544; calls by dose curve;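 note: 0% = DMSO basal wells and 100% = reference agonist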); details: HEK293T RXRa-UAS-bla, beta-lactamase reporter, 18 h; at 76.7 µM (top of the series)
[8] = qHTS assay for small molecule disruptors of the mitochondrial membrane potential - 1 hr assay (AID 651754; calls by dose curve; note: potency is the fitted concentration of half-maximal effect; nearly all actives have a fitted effect of over 35% in size); details: HepG2 mitochondrial membrane potential, JC-1 ratio 590/535, 1 h
How it was run: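 In this qHTS format, a 1 hr compound treatment of HepG2 cells precedes Mito-MPS staining, and membrane potential is judged from aggregate (red) against monomer (green) fluorescence intensity.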

[9] = qHTS assay for small molecule agonists of the antioxidant response element (ARE) signaling pathway measured by Nrf2-dependant transcriptional activity (AID 720636; active = well fitted curve in the direction sought with a large enough effect in the repeat runs; inconclusive = weak or mixed curves; inactive = no such curve, though single readings can be large; an effect the other way counts as inactive or inconclusive; note: potency is the fitted concentration of half-maximal effect); details: ARE-luc HepG2, Nrf2 luciferase reporter, 16 h
How it was run: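 Reporter gene assay, HepG2 ARE-luc: 16 hr compound, 37 C, 5% CO2; read-out luciferase luminescence.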

[10] = qHTS Assay for Identifying Gametocytocidal Compounds (AID 743244); note: potency is the fitted concentration of half-maximal effect; details: P. falciparum 3D7 stage III-V gametocytes, alamarBlue, 72 h
[11] = test system: Zika virus NS2B-NS3 protease; experiment: Primary screen GU AMC qHTS for Zika virus inhibitors (AID 1347154); details: Zika NS2B-NS3 unlinked protease, AMC fluorogenic substrate; note: potency is the fitted concentration of half-maximal effect; nearly all actives have a fitted effect of over 70% in size
How it was run: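 Unlinked Zika NS2B hydrophilic domain/NS3 protease domain noncovalent complex (25 nM final) in 10 mM Tris-HCl pH 8.0, 0.01% Tween 20, with AMC peptide substrate. Fluorescence (ex 340, em 450 nm) change over 15 min, room temperature; percent inhibition fitted to 4-parameter Hill equation.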

[12] = A High-Content qHTS Against Drug Library for the Identification of Small Molecules that Inhibit DYT1 Early Onset Primary Dystonia-Associated Cell Pathology (AID 1645839; calls by dose curve; note: potency is the fitted concentration of half-maximal effect); details: HEK293 Flp-In EGFP-delE TorsinA, punctate imaging, 48 h
How it was run: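 Induced EGFP-delE TorsinA cells are imaged after 48 h of compound treatment. Punctate fusion-protein distribution gives the %pathology value, while nuclei counts flag toxicity. Wild-type EGFP-hTOR1A cells define the normal pattern.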

[13] = molecular target: Cytochrome P450 2D6 (Homo sapiens) (UniProt P10635); experiment: Cytochrome P450 family 2 subfamily D member 6 (CYP2D6) small molecule antagonists: luciferase biochemical (cell-free) qHTS assay (AID 1645840; active = well fitted curve in the direction sought with a large enough effect in the repeat runs; inconclusive = weak or mixed curves; inactive = no such curve, though single readings can be large; an effect the other way counts as inactive or inconclusive; note: potency is the fitted concentration of half-maximal effect; nearly all actives have a fitted effect of over 55% in size); details: P450-Glo CYP2D6 enzyme, luciferin luminescence, 1 h
How it was run: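 P450-Glo CYP2D6 system: proluciferin substrate converted by enzyme to luciferin, read by luminescence proportional to activity. Enzyme-substrate mix with compound 10 min at room temperature, then NADPH regeneration 1 h before detection reagent.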

[14] = molecular target: Cytochrome P450 3A4 (Homo sapiens) (UniProt P08684); experiment: Cytochrome P450 family 3 subfamily A member 4 (CYP3A4) small molecule antagonists: luciferase qHTS assay (AID 1645841; active = well fitted curve in the direction sought with a large enough effect in the repeat runs; inconclusive = weak or mixed curves; inactive = no such curve, though single readings can be large; an effect the other way counts as inactive or inconclusive; note: potency is the fitted concentration of half-maximal effect; nearly all actives have a fitted effect of over 45% in size); details: P450-Glo CYP3A4 enzyme assay, luciferin luminescence
[15] = Primary qHTS for inhibitors of nuclear receptor binding SET domain protein 2 (NSD2) in an isogenic RCH-ACV NSD2 p.E1099K mutant (9B) (AID 1645876); details: RCH-ACV NSD2 E1099K (9B) viability, CellTiter-Glo, 72 h; note: potency is the fitted concentration of half-maximal effect; nearly all actives have a fitted effect of over 70% in size
[16] = Primary qHTS for inhibitors of nuclear receptor binding SET domain protein 2 (NSD2) in an RCH-ACV wild type WT cells (2C) (AID 1645877); details: RCH-ACV (leukaemia line) NSD2 WT (2C) viability, CellTiter-Glo, 72 h; note: potency is the fitted concentration of half-maximal effect; nearly all actives have a fitted effect of over 70% in size
[17] = test system: SKOV3; experiment: Primary qHTS to identify gynecologic anti-cancer compounds using libraries of approved drugs and bioactive compounds (AID 1345084); details: Gynecologic cancer cell panel viability, ATPlite luminescence, 48 h; note: potency is the fitted concentration of half-maximal effect; nearly all actives have a fitted effect of over 55% in size
How it was run: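 Cytotoxicity screen measuring ATP content by luciferase luminescence. Each compound is applied at five concentrations for 48 h at 37 C with 5% CO2.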

[18] = Drug repurposing screens with cells derived from glioblastoma tumor samples (AID 1345199); details: GBM patient neurospheres viability, ATP luminescence, 48 h; note: potency is the fitted concentration of half-maximal effect; nearly all actives have a fitted effect of over 40% in size
How it was run: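 Primary testing used CD133+ neurospheres from four GBM patients, seven concentrations, 48 h exposure and ATP-based viability; confirmation added three slower-growing patient lines.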

[19] = Primary qHTS for small molecule stabilizers of the endoplasmic reticulum resident proteome: Secreted ER Calcium Modulated Protein (SERCaMP) assay (AID 1508630); details: SH-SY5Y GLuc-SERCaMP secretion, thapsigargin, luminescence; note: potency is the fitted concentration of half-maximal effect
How it was run: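 The SH-SY5Y reporter protocol was run at 3 concentrations up to 38.3 uM (primary) or 11 concentrations (follow-up): 16 h compound, 100 nM thapsigargin for 4 h, then extracellular luciferase luminescence.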

[20] = qHTS for differential inhibitors of proliferation of Plasmodium falciparum line 3D7 (AID 1876); note: potency is the fitted concentration of half-maximal effect; details: P. falciparum 3D7 proliferation inhibition
[21] = High Content Imaging Cell-Based qHTS for Inhibitors of the mTORC1 Signaling Pathway in MEF Cells (AID 2667); note: potency is the fitted concentration of half-maximal effect
How it was run: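 Fixed-cell imaging of phospho-S6 (Ser235/236, Alexa-488) after 24 hrs of compound treatment at 37 degree Celsius. Signal was normalized to Hoechst, and thresholds from the highest and lowest wells split cells into % active versus % non-active.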

[22] = molecular target: ATP-dependent 6-phosphofructokinase (Trypanosoma brucei brucei) (UniProt O15648); experiment: qHTS Validation Assay to Find Inhibitors of T. brucei phosphofructokinase (AID 485368); note: potency is the fitted concentration of half-maximal effect; details: T. brucei PFK enzyme assay, qHTS 7-point titration
[23] = molecular target: Transient receptor potential cation channel subfamily V member 1 (Homo sapiens) (UniProt Q8NER1); experiment: HTS Assay for Compounds that Act as Enhancers of the Vanilloid Receptor 1 (AID 488979); details: TRPV1-expressing cells, enhancer of channel activity; stimulated with capsaicin at EC20
How it was run: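 TRPV1-expressing cells loaded with Fluo-8 calcium dye; compounds added and calcium influx read kinetically for 3 min (agonist phase), then capsaicin at EC20 added and read 2 min more for enhancement. Fluorescence ex 480/em 520 nm.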

[24] = molecular target: D(1A) dopamine receptor (Homo sapiens) (UniProt P21728); experiment: HTS Assay for Allosteric Agonists of the Human D1 Dopamine Receptor: Primary Screen for Potentiators (AID 488982); details: D1 receptor cells, potentiator mode, cAMP signal; at 8.37 µM (top of the series); note: 0% is about no effect
[25] = molecular target: Lysine-specific demethylase 5B (Homo sapiens) (UniProt Q9UGL1); experiment: Optimization screen for KDM5B Histone Demethylases FDH coupled qHTS against the LOPAC library (AID 1347166); details: KDM5B demethylation, FDH-coupled NADH fluorescence; note: potency is the fitted concentration of half-maximal effect
How it was run: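 KDM5BDeltaAP (200nM final) in 50mM HEPES pH 7.5, 0.01% Tween-20 was preincubated with compound for 10 min at room temperature. A substrate mix of 12.5uM H3K4Me3, 25uM a-ketoglutarate, ascorbate, Fe2+, NAD+ and formaldehyde dehydrogenase was then added. NADH fluorescence (340/450 nm) was read initially and after 30 min.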

[26] = molecular target: Calcium and integrin-binding protein 1 (Homo sapiens) (UniProt Q99828); experiment: Validation qHTS for Identification of Calcium Integrin Binding protein 1 (CIB1) Competitor (AID 1508618); details: CIB1-GST / FITC-alphaIIb peptide fluorescence polarization; note: potency is the fitted concentration of half-maximal effect
How it was run: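 Displacement of FITC-alphaIIb peptide (100 nM) from CIB1-GST (1 uM) is monitored by polarization in quantitative HTS format; buffer carries 5 mM CaCl2 and 125 mM NaCl at pH 7.4, incubations are at room temperature.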

[27] = test system: WaGa; experiment: qHTS assay to identify novel small-molecules to repurpose for Merkel cell carcinoma treatment (AID 1296009); details: MCC and control cell lines, CellTiter-Glo viability, 72 h; note: potency is the fitted concentration of half-maximal effect; nearly all actives have a fitted effect of over 60% in size
How it was run: (§1)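 Luminescence from CellTiter-Glo, read 10 min after addition at room temperature, reported viability following a 72 hr, 37 degree celsius treatment with NPC or MIPE compounds in titration; values normalized to plate controls.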

[28] = test system: W2; experiment: qHTS profiling for inhibitors of Plasmodium falciparum proliferation (AID 504749); note: potency is the fitted concentration of half-maximal effect; nearly all actives have a fitted effect of over 60% in size; details: P. falciparum in erythrocytes, SYBR Green DNA, 72 h
How it was run: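 Fluorescence of SYBR Green-bound parasite DNA, read at 485/535 nm, served as the growth measure. Infected erythrocytes were cultured with compound 72 h; artemisinin (0.29 uM) and DMSO wells defined the normalization range.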

[29] = test system: UISO; experiment: qHTS assay to identify novel small-molecules to repurpose for Merkel cell carcinoma treatment (AID 1296009); details: MCC and control cell lines, CellTiter-Glo viability, 72 h; note: potency is the fitted concentration of half-maximal effect; nearly all actives have a fitted effect of over 60% in size
How it was run: as §1

Cc1cccc([N+](=O)[O-])c1[N+](=O)[O-]
inconclusive: Potency [1] 15.8 µM | Potency [2] 31.6 µM | activation [3] 0.218% | Potency [4] 50.1 µM | activity change, negative = inhibition [5] -9.57% | Potency [6] 39.8 µM | activation [7] -34.1% | Potency [8] 75 µM | Potency [9] 10.6 µM and 27.3 µM | Potency [10] 35.5 µM | Potency [11] 55.3 µM | Potency [12] 14.1 µM | Potency [13] 25.2 µM | Potency [14] 16.8 µM | Potency [15] 25.8 µM | Potency [16] 45.9 µM | Potency [17] 3.16 µM | Potency ([18]; tumour line A) 39.8 µM

CC(=O)C1=CCCC2CCC1N2 (stereo not given)
inconclusive: Potency [19] 10 µM

CN(C(=O)Cc1ccccc1)[C@@H]1CC[C@]2(CCCO2)C[C@H]1N1CCCC1
inconclusive: Potency [20] 20 µM | Potency [21] 14.7 µM | Potency [22] 0.757 µM | Potency [23] 31.6 µM | activity, positive = potentiation [24] 38.8% | Potency [25] 20 µM | Potency [26] 35.5 µM

CN(C(=O)Cc1ccccc1)[C@H]1CC[C@@]2(CCCO2)C[C@@H]1N1CCCC1
inconclusive: Potency [27] 23.7 µM

CC(C)OP(=O)(F)OC(C)C
inconclusive: Potency ([18]; tumour line A) 35.5 µM | Potency ([18]; tumour line D) 0.631 µM | Potency [28] 1.51 µM

CCNC(C)Cc1ccc2c(c1)OCO2 (stereo not given)
inconclusive: Potency [19] 56.2 µM | Potency [13] 0.0679 µM | Potency [16] 37 µM | Potency [29] 58.6 µM | Potency ([18]; tumour line D) 70.8 µM
